Results are given in words; binding and its absence hold for the method and conditions named. In cells and extracts the contact can be indirect. Here binding means that the protein was enriched with, or labelled near, the bait; the list need not be complete.
Target: T1, Non-POU domain containing octamer binding (NONO) protein (human (endogenous in U2OS)) (UniProt Q15233)
T1 sequence: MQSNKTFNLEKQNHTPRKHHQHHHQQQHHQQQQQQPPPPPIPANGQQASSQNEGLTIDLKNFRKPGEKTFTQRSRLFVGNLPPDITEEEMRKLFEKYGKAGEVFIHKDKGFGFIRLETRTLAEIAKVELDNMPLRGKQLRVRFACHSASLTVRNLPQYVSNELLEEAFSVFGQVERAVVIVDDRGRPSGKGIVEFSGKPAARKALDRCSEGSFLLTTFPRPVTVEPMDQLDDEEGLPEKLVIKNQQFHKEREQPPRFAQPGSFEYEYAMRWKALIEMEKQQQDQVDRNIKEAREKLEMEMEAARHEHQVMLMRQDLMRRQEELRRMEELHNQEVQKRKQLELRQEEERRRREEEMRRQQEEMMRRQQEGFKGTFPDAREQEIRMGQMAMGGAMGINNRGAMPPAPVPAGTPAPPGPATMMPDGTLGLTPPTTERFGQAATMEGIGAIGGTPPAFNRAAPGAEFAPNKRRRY
Assay: affinity purification with mass spectrometry

Sequences of proteins named here, by UniProt entry; tags and fusion partners are left off.
UniProt P67809: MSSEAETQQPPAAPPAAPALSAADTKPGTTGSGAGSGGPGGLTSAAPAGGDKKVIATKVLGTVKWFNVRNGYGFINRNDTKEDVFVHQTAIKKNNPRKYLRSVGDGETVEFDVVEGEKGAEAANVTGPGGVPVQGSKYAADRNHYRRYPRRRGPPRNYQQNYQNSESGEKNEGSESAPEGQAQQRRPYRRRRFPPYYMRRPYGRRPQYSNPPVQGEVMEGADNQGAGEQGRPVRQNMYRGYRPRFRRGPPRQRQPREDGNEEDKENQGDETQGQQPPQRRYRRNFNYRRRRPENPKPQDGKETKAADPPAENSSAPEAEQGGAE
UniProt O60506: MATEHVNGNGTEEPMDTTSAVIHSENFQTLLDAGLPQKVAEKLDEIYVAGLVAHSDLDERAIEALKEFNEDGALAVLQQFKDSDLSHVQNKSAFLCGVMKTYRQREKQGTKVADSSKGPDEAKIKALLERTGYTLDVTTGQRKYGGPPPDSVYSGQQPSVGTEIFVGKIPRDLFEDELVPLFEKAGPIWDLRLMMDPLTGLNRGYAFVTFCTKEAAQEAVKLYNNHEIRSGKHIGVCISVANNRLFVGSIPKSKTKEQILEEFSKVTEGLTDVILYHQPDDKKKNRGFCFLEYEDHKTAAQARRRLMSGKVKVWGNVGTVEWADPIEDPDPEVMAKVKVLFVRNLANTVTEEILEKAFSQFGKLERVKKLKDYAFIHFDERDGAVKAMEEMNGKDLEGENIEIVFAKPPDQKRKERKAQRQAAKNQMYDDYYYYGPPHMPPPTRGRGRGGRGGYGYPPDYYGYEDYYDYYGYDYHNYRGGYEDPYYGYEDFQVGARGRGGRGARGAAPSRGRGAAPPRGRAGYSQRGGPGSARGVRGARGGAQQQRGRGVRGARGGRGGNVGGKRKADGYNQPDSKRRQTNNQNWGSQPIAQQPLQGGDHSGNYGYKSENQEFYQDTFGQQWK

Row | Substance | binding
1 | YBX1 (from UniProt P67809 1-324) | binds
2 | SYNCRIP (from UniProt O60506 1-623) | binds

From publication doi:10.1101/2025.03.09.642258
